Assay results as given in patent publication US20050260630A1, “Rapid methods for detecting methylation of a nucleic acid molecule” (Michigan State University, priority 2004, published 2005).
At least one structure is not confirmed: it was looked up by name or label, or the drawing left a doubt.

System: genomic DNA from liver cells (GC-rich regions, 5′CCGG 3′ sites)
Assay: Arbitrarily primed PCR and capillary electrophoresis methylation analysis of liver DNA of phenobarbital-treated C57BL/6 mice (RsaI/HpaII digest)
Details: liver DNA of male C57BL/6 mice, 0.05% (w/v) in drinking water for 2 weeks

CCC1(c2ccccc2)C(=O)NC(=O)NC1=O [phenobarbital]
sites methylated in the control completely hypomethylated (−100%) in the treated: two
